Measured data: PubChem BioAssay AID1259405 (NCATS, 2018)
This is an unselected part of about 50,000 reagents. About 4,000 of all reagents (8%) were called active. 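Mouse siRNA library applied to hamster cells; one well for each siRNA.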 Reagents against one gene are numbered here.

Aim: 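Knock-downs that lift recombinant protein yield in hamster ovary cells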 (primary screen)
System: Chinese hamster CHO-K1 ovary cells with stable secreted eGFP expression
Knock-down reagent: single siRNA against mouse genes, 0.8 pmol siRNA per well (2 µl of 400 nM stock)
Duration: 3 days
Measured: 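Per-well intracellular GFP measured by laser scanning cytometry, plus viability from ATP luminescence, each relative to plate median of non-targeting control wells, in %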
Direction: GFP, % of control: higher = more GFP per well, higher productivity; viability (ATP), % of control: higher = more viable cells (more ATP)
Rule for the call: 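a knock-down is called active if GFP reaches 120% or more of non-targeting control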

gene knocked down | siRNA no. | GFP, % of control | viability (ATP), % of control | outcome
Setd4 (SET domain containing 4) | 1 | 57.4 | 59.6 | inactive
Setd4 (SET domain containing 4) | 2 | 163 | 96.3 | active
Setd4 (SET domain containing 4) | 3 | 65.5 | 83.1 | inactive
Arglu1 (arginine and glutamate rich 1) | 1 | 50.9 | 17.8 | inactive
Arglu1 (arginine and glutamate rich 1) | 2 | 65.4 | 68.4 | inactive
Arglu1 (arginine and glutamate rich 1) | 3 | 98.7 | 110 | inactive
Txlnb (taxilin beta) | 1 | 70.4 | 65.7 | inactive
Txlnb (taxilin beta) | 2 | 76.5 | 76.1 | inactive
Txlnb (taxilin beta) | 3 | 64.2 | 61.4 | inactive
Slc12a3 | 1 | 105 | 90.1 | inactive
Slc12a3 | 2 | 66.9 | 62.9 | inactive
Slc12a3 | 3 | 97.3 | 97.5 | inactive
Aco1 (aconitase 1) | 1 | 103 | 106 | inactive
Aco1 (aconitase 1) | 2 | 64.2 | 80.6 | inactive
Brs3 (bombesin-like receptor 3) | 1 | 49.6 | 50.6 | inactive
Brs3 (bombesin-like receptor 3) | 2 | 45.5 | 60.8 | inactive
Brs3 (bombesin-like receptor 3) | 3 | 58.7 | 38.1 | inactive
Nrsn1 (neurensin 1) | 1 | 100 | 63.7 | inactive
Nrsn1 (neurensin 1) | 2 | 82.4 | 76.6 | inactive
Nrsn1 (neurensin 1) | 3 | 69.4 | 79.4 | inactive
Glra1 (glycine receptor, alpha 1 subunit) | 1 | 98.2 | 98 | inactive
Glra1 (glycine receptor, alpha 1 subunit) | 2 | 55.2 | 60.1 | inactive
Glra1 (glycine receptor, alpha 1 subunit) | 3 | 63.4 | 54.9 | inactive
Sec14l1 (SEC14-like lipid binding 1) | 1 | 99.2 | 92.7 | inactive
Sec14l1 (SEC14-like lipid binding 1) | 2 | 44.9 | 73.3 | inactive
Sec14l1 (SEC14-like lipid binding 1) | 3 | 51.1 | 81.9 | inactive
Tubb4a (tubulin, beta 4A class IVA) | 1 | 53.5 | 43.6 | inactive
Tubb4a (tubulin, beta 4A class IVA) | 2 | 115 | 83.6 | inactive
Ofd1 (OFD1, centriole and centriolar satellite protein) | 1 | 43 | 78.1 | inactive
Ofd1 (OFD1, centriole and centriolar satellite protein) | 2 | 77.9 | 69.5 | inactive
Gabpb2 (GA repeat binding protein, beta 2) | 1 | 49.2 | 66 | inactive
Gabpb2 (GA repeat binding protein, beta 2) | 2 | 61.8 | 76.6 | inactive
Gabpb2 (GA repeat binding protein, beta 2) | 3 | 67.8 | 88.5 | inactive
Flrt2 (fibronectin leucine rich transmembrane protein 2) | 1 | 137 | 106 | active
Flrt2 (fibronectin leucine rich transmembrane protein 2) | 2 | 116 | 52.6 | inactive
Flrt2 (fibronectin leucine rich transmembrane protein 2) | 3 | 98.2 | 71.3 | inactive
Glmn (glomulin, FKBP associated protein) | 1 | 64.6 | 77.4 | inactive
Glmn (glomulin, FKBP associated protein) | 2 | 66.3 | 82 | inactive
Glmn (glomulin, FKBP associated protein) | 3 | 67.7 | 90 | inactive
Tenm4 (teneurin transmembrane protein 4) | 1 | 47 | 41.3 | inactive
Tenm4 (teneurin transmembrane protein 4) | 2 | 79.9 | 69.7 | inactive
Tenm4 (teneurin transmembrane protein 4) | 3 | 45.3 | 49.7 | inactive
Mrgprb4 (MAS-related GPR, member B4) | 1 | 55 | 44.7 | inactive
Mrgprb4 (MAS-related GPR, member B4) | 2 | 51.6 | 66.9 | inactive
Mrgprb4 (MAS-related GPR, member B4) | 3 | 65.7 | 75.7 | inactive
Apoh (apolipoprotein H) | 1 | 128 | 161 | active
Apoh (apolipoprotein H) | 2 | 125 | 99.8 | active
Apoh (apolipoprotein H) | 3 | 61.6 | 83.7 | inactive
Vmn2r29 (vomeronasal 2, receptor 29) | 1 | 41.9 | 42.9 | inactive
Vmn2r29 (vomeronasal 2, receptor 29) | 2 | 54.6 | 47.9 | inactive
Vmn2r29 (vomeronasal 2, receptor 29) | 3 | 139 | 64.6 | active
Slco1a6 | 1 | 116 | 42.3 | inactive
Slco1a6 | 2 | 77.7 | 66 | inactive
Slco1a6 | 3 | 64.6 | 81.6 | inactive
Scrt1 (scratch family zinc finger 1) | 1 | 17.4 | 34.7 | inactive
Scrt1 (scratch family zinc finger 1) | 2 | 54.7 | 74.8 | inactive
Rbfa (ribosome binding factor A) | 1 | 58.7 | 70.9 | inactive
Rbfa (ribosome binding factor A) | 2 | 74.1 | 82.3 | inactive
Rbfa (ribosome binding factor A) | 3 | 106 | 74.5 | inactive
Ccdc166 (coiled-coil domain containing 166) | 1 | 74.7 | 75.2 | inactive
Ccdc166 (coiled-coil domain containing 166) | 2 | 79.7 | 82.7 | inactive
Ccdc166 (coiled-coil domain containing 166) | 3 | 107 | 72.9 | inactive
Coa3 (cytochrome C oxidase assembly factor 3) | 1 | 89.2 | 94.2 | inactive
Coa3 (cytochrome C oxidase assembly factor 3) | 2 | 69.5 | 64.3 | inactive
Coa3 (cytochrome C oxidase assembly factor 3) | 3 | 106 | 135 | inactive
G6pc3 (glucose 6 phosphatase, catalytic, 3) | 1 | 114 | 94.7 | inactive
G6pc3 (glucose 6 phosphatase, catalytic, 3) | 2 | 107 | 97.1 | inactive
G6pc3 (glucose 6 phosphatase, catalytic, 3) | 3 | 83.6 | 75.7 | inactive
Smim30 (small integral membrane protein 30) | 1 | 72.1 | 63.8 | inactive
Smim30 (small integral membrane protein 30) | 2 | 65.8 | 44.2 | inactive
Smim30 (small integral membrane protein 30) | 3 | 75.6 | 83.5 | inactive
Insm1 (insulinoma-associated 1) | 1 | 68.6 | 72.8 | inactive
Insm1 (insulinoma-associated 1) | 2 | 84.1 | 79.5 | inactive
Insm1 (insulinoma-associated 1) | 3 | 131 | 111 | active
Meis3 (Meis homeobox 3) | 1 | 73.7 | 66.1 | inactive
Meis3 (Meis homeobox 3) | 2 | 70.6 | 86.1 | inactive
Meis3 (Meis homeobox 3) | 3 | 59.9 | 69.4 | inactive
Maged2 (MAGE family member D2) | 1 | 84.5 | 73.5 | inactive
Maged2 (MAGE family member D2) | 2 | 125 | 41.2 | active
Maged2 (MAGE family member D2) | 3 | 124 | 120 | active
Crx (cone-rod homeobox) | 1 | 82.9 | 89.1 | inactive
Crx (cone-rod homeobox) | 2 | 95.7 | 74.9 | inactive
Crx (cone-rod homeobox) | 3 | 38.2 | 43.8 | inactive
Dph7 (diphthamine biosynethesis 7) | 1 | 73.3 | 78.4 | inactive
Dph7 (diphthamine biosynethesis 7) | 2 | 78.3 | 53.6 | inactive
Dph7 (diphthamine biosynethesis 7) | 3 | 87 | 82.4 | inactive

Entries above marked active:
gene knocked down | siRNA no. | GFP, % of control | viability (ATP), % of control | outcome
Setd4 (SET domain containing 4) | 2 | 163 | 96.3 | active
Flrt2 (fibronectin leucine rich transmembrane protein 2) | 1 | 137 | 106 | active
Apoh (apolipoprotein H) | 1 | 128 | 161 | active
Apoh (apolipoprotein H) | 2 | 125 | 99.8 | active
Vmn2r29 (vomeronasal 2, receptor 29) | 3 | 139 | 64.6 | active
Insm1 (insulinoma-associated 1) | 3 | 131 | 111 | active
Maged2 (MAGE family member D2) | 2 | 125 | 41.2 | active
Maged2 (MAGE family member D2) | 3 | 124 | 120 | active
